Assay results taken from article PMC9985596.
No constants are given. Whether binding was seen depends on the method and setting. Binding seen in cells or lysates may run through a third protein. Some results given as binding are weak or reduced against the parent protein; the word gives no strength. Sequences can lack the tags named with a protein.

Sequences of proteins named here, by UniProt entry; tags and fusion partners are left off.
UniProt Q9H1A4: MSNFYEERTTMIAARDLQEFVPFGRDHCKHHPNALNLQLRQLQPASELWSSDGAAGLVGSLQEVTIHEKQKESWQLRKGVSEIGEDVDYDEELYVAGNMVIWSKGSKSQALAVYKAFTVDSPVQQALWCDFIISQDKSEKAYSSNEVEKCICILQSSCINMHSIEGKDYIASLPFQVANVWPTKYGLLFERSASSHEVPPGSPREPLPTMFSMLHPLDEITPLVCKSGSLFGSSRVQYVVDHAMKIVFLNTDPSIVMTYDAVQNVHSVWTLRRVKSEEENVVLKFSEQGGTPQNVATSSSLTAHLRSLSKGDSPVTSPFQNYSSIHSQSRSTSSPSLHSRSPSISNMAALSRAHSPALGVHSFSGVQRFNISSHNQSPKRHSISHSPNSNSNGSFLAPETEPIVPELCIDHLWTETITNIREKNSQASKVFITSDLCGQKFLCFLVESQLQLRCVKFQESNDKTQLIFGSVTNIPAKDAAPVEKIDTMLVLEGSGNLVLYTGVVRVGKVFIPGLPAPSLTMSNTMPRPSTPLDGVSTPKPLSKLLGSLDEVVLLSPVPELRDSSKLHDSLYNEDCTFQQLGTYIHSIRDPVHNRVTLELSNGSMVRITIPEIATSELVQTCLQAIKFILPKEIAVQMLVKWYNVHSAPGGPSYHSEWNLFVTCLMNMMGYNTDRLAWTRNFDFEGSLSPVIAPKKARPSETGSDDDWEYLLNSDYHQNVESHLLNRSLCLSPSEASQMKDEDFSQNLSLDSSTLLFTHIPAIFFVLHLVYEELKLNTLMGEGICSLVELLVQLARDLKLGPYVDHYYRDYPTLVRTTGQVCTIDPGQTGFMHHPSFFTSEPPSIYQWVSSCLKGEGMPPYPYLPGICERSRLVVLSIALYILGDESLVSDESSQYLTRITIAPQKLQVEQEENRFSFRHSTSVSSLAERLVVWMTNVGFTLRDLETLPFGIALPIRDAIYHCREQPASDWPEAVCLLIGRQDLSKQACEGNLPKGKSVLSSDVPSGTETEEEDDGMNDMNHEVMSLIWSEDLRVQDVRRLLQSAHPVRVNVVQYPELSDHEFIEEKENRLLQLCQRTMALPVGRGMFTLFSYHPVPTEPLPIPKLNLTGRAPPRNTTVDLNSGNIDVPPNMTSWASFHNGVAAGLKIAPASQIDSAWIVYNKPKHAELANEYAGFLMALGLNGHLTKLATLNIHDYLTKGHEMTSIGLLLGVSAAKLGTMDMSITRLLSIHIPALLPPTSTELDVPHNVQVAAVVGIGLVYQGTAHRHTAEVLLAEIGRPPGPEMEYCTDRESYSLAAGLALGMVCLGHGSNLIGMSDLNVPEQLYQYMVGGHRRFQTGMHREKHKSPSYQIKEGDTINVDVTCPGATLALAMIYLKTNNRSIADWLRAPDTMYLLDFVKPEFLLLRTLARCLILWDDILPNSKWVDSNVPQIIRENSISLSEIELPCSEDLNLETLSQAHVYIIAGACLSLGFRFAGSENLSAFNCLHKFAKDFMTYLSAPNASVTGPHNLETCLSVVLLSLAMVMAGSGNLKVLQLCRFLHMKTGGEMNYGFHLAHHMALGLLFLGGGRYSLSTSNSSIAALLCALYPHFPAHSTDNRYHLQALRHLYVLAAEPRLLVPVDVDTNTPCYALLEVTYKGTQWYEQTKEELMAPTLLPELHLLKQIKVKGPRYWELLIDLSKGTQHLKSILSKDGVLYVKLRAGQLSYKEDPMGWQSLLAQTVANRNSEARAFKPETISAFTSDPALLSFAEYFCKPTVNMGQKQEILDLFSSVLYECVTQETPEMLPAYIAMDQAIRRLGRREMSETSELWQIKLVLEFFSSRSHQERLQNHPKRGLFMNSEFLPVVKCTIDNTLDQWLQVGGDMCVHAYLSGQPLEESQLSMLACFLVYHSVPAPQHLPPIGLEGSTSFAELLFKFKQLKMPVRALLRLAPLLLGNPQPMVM
UniProt Q9UJX4: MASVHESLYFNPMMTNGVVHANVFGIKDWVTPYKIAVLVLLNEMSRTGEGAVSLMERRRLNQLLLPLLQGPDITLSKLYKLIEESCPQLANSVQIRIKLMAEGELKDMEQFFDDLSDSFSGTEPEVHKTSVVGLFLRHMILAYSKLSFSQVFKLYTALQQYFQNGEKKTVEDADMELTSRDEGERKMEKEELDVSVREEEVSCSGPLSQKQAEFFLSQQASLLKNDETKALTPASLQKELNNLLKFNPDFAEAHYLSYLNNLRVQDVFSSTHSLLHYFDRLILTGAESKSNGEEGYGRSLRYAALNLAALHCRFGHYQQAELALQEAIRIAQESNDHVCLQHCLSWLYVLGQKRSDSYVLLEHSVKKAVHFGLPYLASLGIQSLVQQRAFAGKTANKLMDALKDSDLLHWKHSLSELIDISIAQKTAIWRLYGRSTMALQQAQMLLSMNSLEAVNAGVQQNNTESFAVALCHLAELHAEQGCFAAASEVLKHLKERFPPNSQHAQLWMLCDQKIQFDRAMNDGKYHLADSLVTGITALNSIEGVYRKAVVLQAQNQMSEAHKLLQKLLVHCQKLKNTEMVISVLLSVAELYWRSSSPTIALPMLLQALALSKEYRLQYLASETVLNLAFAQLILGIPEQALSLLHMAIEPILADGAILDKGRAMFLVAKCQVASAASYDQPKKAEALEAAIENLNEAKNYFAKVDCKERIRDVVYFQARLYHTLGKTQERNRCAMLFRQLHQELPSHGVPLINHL

Key:
[1] = target: T1, FLAG-tagged RECQ4 wild type (human) (UniProt O94761); test: co-IP; FLAG-RECQ4 proteins on anti-FLAG M2 agarose from chromatin-bound (CB) fractions of stable RECQ4 KD HEK293 cells; western blot (Fig. 2d right, Fig. 7g)
T1 sequence: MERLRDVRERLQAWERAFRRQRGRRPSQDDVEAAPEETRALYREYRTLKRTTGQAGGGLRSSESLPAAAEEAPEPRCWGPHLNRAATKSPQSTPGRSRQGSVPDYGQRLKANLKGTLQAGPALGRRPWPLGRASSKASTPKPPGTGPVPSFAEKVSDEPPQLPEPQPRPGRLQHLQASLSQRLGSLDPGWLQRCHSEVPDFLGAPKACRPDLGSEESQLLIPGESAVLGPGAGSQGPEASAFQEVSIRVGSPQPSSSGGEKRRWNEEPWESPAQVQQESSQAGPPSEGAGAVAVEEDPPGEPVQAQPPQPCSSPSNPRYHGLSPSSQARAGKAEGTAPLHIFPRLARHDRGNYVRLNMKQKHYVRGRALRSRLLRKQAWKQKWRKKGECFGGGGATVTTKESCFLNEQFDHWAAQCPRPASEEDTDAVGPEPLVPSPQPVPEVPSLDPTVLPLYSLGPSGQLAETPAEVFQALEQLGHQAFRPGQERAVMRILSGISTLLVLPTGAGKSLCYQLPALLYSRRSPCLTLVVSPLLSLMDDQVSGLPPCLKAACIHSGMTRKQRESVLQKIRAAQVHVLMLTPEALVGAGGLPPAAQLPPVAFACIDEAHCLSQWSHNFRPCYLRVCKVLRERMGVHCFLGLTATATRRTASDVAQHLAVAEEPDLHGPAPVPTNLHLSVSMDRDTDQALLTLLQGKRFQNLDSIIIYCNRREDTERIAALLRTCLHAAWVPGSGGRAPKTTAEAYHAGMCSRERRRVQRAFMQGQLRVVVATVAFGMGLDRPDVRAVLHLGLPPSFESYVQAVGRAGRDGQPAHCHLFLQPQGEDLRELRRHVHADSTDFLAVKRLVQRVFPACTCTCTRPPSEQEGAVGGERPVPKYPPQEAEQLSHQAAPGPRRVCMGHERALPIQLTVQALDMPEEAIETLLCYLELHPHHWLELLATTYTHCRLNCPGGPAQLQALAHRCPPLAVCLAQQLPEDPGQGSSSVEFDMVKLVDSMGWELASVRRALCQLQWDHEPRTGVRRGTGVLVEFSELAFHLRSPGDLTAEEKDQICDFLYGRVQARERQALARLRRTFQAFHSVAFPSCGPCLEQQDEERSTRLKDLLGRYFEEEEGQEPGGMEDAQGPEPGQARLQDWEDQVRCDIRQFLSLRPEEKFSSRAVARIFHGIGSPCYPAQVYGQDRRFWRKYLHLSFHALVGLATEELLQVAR

[2] = target: T2, recombinant His-RECQ4(1-492)-FLAG (human) (UniProt O94761); test: pull-down; purified recombinant His-RECQ4-FLAG fragments pre-bound to M2 agarose, incubated with the CB fraction of parental HEK293 cells for 4 h at 4 C; washed with FLAG-A-binding buffer; western blot, normalised to the bait (Fig. 4d, e); only the target purified
T2 sequence: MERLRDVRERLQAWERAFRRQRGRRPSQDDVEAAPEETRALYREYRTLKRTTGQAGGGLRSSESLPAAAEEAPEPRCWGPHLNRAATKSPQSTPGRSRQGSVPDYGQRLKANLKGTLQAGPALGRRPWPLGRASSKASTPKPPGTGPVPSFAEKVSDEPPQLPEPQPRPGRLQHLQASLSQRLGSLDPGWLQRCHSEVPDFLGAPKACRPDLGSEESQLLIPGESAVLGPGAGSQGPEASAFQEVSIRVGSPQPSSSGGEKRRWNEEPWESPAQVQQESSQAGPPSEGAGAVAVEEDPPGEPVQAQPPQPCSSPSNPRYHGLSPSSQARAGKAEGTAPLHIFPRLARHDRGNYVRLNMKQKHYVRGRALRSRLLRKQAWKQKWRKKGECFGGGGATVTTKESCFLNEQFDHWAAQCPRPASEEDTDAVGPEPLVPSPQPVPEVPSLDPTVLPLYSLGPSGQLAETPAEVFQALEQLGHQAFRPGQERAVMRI

[3] = target: T1, FLAG-tagged RECQ4 wild type (human); test: co-IP; FLAG-RECQ4 constructs transiently overexpressed in RECQ4 KD HEK293 cells, immunopurified on M2 agarose from CB fractions; western blot, prey normalised to the bait (Fig. 4a, c)
[4] = target: T3, FLAG-RECQ4(1-240) (human) (UniProt O94761); test: as above
T3 sequence: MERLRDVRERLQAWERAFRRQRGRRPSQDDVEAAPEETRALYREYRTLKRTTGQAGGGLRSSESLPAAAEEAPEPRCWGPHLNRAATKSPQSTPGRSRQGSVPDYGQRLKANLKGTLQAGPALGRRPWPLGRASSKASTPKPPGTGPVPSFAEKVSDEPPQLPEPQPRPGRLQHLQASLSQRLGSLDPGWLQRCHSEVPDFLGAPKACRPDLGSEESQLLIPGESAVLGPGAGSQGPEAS

Measured: binding

APC1 (from UniProt Q9H1A4 1-1944)
binds: all assays above

APC5 (from UniProt Q9UJX4 1-755)
binds: all assays above
